# Results are given in words; binding and its absence hold for the method and conditions named. Some results given as binding are weak or reduced against the parent protein; the word gives no strength.
# B1: murine monoclonal antibody TA99 (antibody, V domains shown)
# VH: EVQLQQSGAELVRPGALVKLSCKTSGFNIKDYFLHWVRQRPDQGLEWIGWINPDNGNTVYDPKFQGTASLTADTSSNTVYLQLSGLTSEDTAVYFCTRRDYTYEKAALDYWGQGASVIVSS
# VL: AFQMSQSPASLSASVGETVTITCRASGNIYNYLAWYQQKQGKSPHLLVYDAKTLADGVPSRFSGSGSGTQYSLKISSLQTEDSGNYYCQHFWSLPFTFGSGTKLEIKA
# Experiments:
# [1] = biological target: Trp1 as expressed by B16 melanoma cells (UniProt P07147); assay: flow cytometry on permeabilized B16 cells, detection with anti-mouse IgG PE
# [2] = biological target: Trp1 as expressed by B16 melanoma cells (UniProt P07147); assay: flow cytometry on permeabilized B16 melanoma cells, anti-mouse IgG PE detection
binder,measurement,setting,value
B1,binding,[1],binds
same,binding,[2],binds
